Test results taken from paper PMC4279683.
Construct, isoform or probe ends are uncertain for at least one entry.

Assays:
[1] = system: GabR-His (Bacillus thuringiensis subsp. kurstaki HD73); experiment: EMSA; settings: 10 mM Tris-HCl pH 7.5, 0.5 mM DTT, 50 mM NaCl, 500 ng poly(dI:dC), 4% glycerol, 25 C, 20 min, 0.1 ug probe in 20 ul (EMSA), 120 ng in 50 ul (footprinting), recombinant protein, residues 1-455, label: 5' 6-FAM, probe letters rebuilt from the primers and the genome
[2] = system: GabR-His (Bacillus thuringiensis subsp. kurstaki HD73); experiment: DNase I footprinting; settings: 3.2, 4.8 and 8 uM GabR, 96 bp protected; 10 mM Tris-HCl pH 7.5, 0.5 mM DTT, 50 mM NaCl, 500 ng poly(dI:dC), 4% glycerol, 25 C, 20 min; 0.1 ug probe in 20 ul (EMSA), 120 ng in 50 ul (footprinting); recombinant protein; residues 1-455; label: 5' 6-FAM; probe letters rebuilt from the primers and the genome
[3] = system: GabR-His (Bacillus thuringiensis subsp. kurstaki HD73); experiment: competition EMSA; settings: 5-fold excess unlabeled PgabT competes, 8 uM GabR; 10 mM Tris-HCl pH 7.5, 0.5 mM DTT, 50 mM NaCl, 500 ng poly(dI:dC), 4% glycerol, 25 C, 20 min; 0.1 ug probe in 20 ul (EMSA), 120 ng in 50 ul (footprinting); recombinant protein; residues 1-455; label: 5' 6-FAM; probe letters rebuilt from the primers and the genome

Measured: binding result

GATTGCTATGCAATTGGGGTGCTATCTGGTACGGGAGACCGTCCAACATTAGAACCACTTGCTGATTTAGTGTTAGATTCTGTTGGAGAGTTTATTTCTCAATCGGGTGAGTTTTTCTGGGAGAAAGAAAAGTCTAATGTGTAAGGAAAATAAGTCTATAAAGACTCTTAATGAGTCTTTATAGACTTATTTTTTATGCCTGGATACAAAGAATATAGGATAAATGCTAGAAAAGAAAGTTGGCATACATTTTGCAATAAAAAGAGAAAACAATGTAAAGAAAAGG (double strand) [PgabT promoter fragment (286 bp)]
binds: [1]; GABA (0.1-50 uM), 2.5 uM GabR, binding not enhanced | [1]; SSA (0.1-50 uM), 2.5 uM GabR, binding not enhanced | [1]; poly(dI:dC) 500 ng | [2] | [3]
